Results are given in words; binding and its absence hold for the method and conditions named. Some binding calls cover weakened binding; strength is not graded here.
Key:
[1] = target: T1, WRS (tryptophanyl-tRNA synthetase), purified recombinant antigen / standard (human) (UniProt P23381); assay: phage panning on immobilised WRS followed by clone screening
T1 sequence (looked up): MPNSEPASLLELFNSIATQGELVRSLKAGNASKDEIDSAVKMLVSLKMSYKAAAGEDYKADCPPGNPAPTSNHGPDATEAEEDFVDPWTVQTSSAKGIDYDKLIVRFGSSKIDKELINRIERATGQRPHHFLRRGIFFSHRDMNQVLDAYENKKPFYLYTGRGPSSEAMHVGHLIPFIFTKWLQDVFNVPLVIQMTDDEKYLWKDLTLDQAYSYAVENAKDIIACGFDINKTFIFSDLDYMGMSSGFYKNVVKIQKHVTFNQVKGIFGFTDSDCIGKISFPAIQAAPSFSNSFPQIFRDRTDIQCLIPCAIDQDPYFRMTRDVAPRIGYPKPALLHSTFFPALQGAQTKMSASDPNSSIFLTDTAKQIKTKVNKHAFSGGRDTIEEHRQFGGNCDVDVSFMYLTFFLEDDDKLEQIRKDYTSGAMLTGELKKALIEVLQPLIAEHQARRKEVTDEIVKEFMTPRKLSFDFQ

[2] = target: T1, WRS (tryptophanyl-tRNA synthetase), purified recombinant antigen / standard (human); assay: sandwich ELISA, scFv coated as capture, rabbit polyclonal anti-WRS as detection
[3] = target: T1, WRS (tryptophanyl-tRNA synthetase), purified recombinant antigen / standard (human); assay: Luminex multiplex bead assay, WRS coupled to beads, anti-HA-biotin / SA-PE detection
[4] = target: T1, WRS (tryptophanyl-tRNA synthetase), purified recombinant antigen / standard (human); assay: sandwich ELISA, scFv coated at 100-400 ng/well as capture, rabbit polyclonal anti-WRS (4 ug/ml) as detection, OD450

binding [1]: binds
binding [2]: binds
binding [3]: binds
binding [4]: binds
B1: anti-WRS scFv Biocon-W1 (scFv, not shown: small tags and cut ends)
scFv: EVQLLESGGGLVQPGGSLRLSCAASGLAFSDYYMSWVRLAPGKGLEWVSVISPGSGSKYYADSVRGRFTVSRDNSKNTLYLQMNSLRAEDTAVYYCARKNQAFDYWGQGTLVTVSSGGGGSGGGGSGGGGSQSVLTQPPSASGTPGQRVTISCTGSSSNIGSNYVTWYQQLPGTAPKLLIYANSQRPSGVPDRFSGSKSGTSASLAISGLRSEDEADYYCASWDASLSGYVFGGGTKLTVL
